Data source: PubChem BioAssay AID652248 (Drosophila RNAi Screening Center, 2013)
The deposit covers 863 reagents; this is a random part of them. 32 of all reagents (3.7%) were called active. 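Calls also used reproducibility and a similarity ranking whose scores are not deposited; many active genes show only modest elongated scores.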 Further read-outs or replicates are left out here. Not stated in the record: the amount of reagent, the time to read-out.

Test: 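Genes that govern switching among distinct shape types in fly blood cells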 (primary screen)
Cells: cultured Drosophila hemocytes
Reagent: long dsRNA against Drosophila genes
Measured: 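Automated microscopy of stained actin, tubulin and nuclei; single-cell shape measures assigned to five reference shape types, giving a score per dsRNA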
Direction: elongated score: higher = more elongated bipolar cells; normal round score: higher = more normal rounded cells
Call rule: 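Hits show a significant increase of elongated cells; higher rank given where elongated cells rose as other shape types fell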

The opening 2 entries, to show the layout:
gene knocked down	amplicon	elongated score, rep 1	normal round score, rep 1	outcome
PTPMT1	DRSC14235	-0.45	0.19	inactive
hppy	DRSC07014	1.87	-5.57	inactive

Results, from the start:
gene knocked down	amplicon	elongated score, rep 1	normal round score, rep 1	outcome
PTPMT1	DRSC14235	-0.45	0.19	inactive
hppy	DRSC07014	1.87	-5.57	inactive
hppy	DRSC07015	-0.09	-1.8	inactive
hppy	DRSC07016	1.36	-1	inactive
hppy	DRSC28168	-0.53	-0.21	inactive
Src42A	DRSC04915	0.05	0	inactive
ksr	DRSC12379	0.88	-0.45	inactive
Cdc7	DRSC18429	-0.4	-2.13	inactive
Cdc7	DRSC27819	1.18	-1.75	inactive
Bub1	DRSC23158	-0.28	0.02	inactive
Bub1	DRSC27436	0.94	-0.45	inactive
Mos	DRSC07258	-0.53	0.86	inactive
IP3K2	DRSC19747	1.48	-1.48	inactive
IP3K2	DRSC27191	1.76	-2.46	inactive
mod(mdg4)	DRSC13474	-0.36	-0.13	inactive
mod(mdg4)	DRSC13475	0.37	-1.35	inactive
mod(mdg4)	DRSC13478	0.95	-0.54	inactive
mod(mdg4)	DRSC15042	-0.53	1.02	inactive
mod(mdg4)	DRSC17000	0.05	0.59	inactive
Alk	DRSC05918	-0.53	0.02	inactive
Alk	DRSC23342	0.48	-1.2	inactive
Alp12	DRSC02515	0.32	-0.95	inactive
Stacl	DRSC23019	2.92	-1.57	inactive
Stacl	DRSC25838	-0.53	-0.63	inactive
Cdk8	DRSC11113	-0.53	-0.33	inactive
Cdk8	DRSC28684	-0.02	0.08	inactive
CG32687	DRSC18210	-0.39	-1.2	inactive
CG32687	DRSC18237	-0.29	-2.99	inactive
